Laboratory results: PubChem BioAssay AID2662 (National Center for Advancing Translational Sciences (NCATS), 2010)
Among all 290,000 compounds or so, about 110 (0.038%) were called active. The inconclusive results got no clear call from the source; some entries with a clear call stand among them for comparison. Calls follow the shape of the dose curve; as a rule, active = well fitted inhibition curve with a large enough effect in the polarisation, with a control signal flat (not every such curve was filed as active); inconclusive = small, poorly fitted or top-dose-only effect, or effect the other way, or a change in a side signal; inactive = no such curve, though single readings can be large or run the other way; the % refers to the polarisation. Potencies beside an inconclusive call are fits to weak or partial responses and may not hold up. “Side channel” marks fits to a control or component signal instead of the main read-out.

Chains of the proteins cited; added tags and fusions are not shown.
UniProt Q03164, whole entry, looked up: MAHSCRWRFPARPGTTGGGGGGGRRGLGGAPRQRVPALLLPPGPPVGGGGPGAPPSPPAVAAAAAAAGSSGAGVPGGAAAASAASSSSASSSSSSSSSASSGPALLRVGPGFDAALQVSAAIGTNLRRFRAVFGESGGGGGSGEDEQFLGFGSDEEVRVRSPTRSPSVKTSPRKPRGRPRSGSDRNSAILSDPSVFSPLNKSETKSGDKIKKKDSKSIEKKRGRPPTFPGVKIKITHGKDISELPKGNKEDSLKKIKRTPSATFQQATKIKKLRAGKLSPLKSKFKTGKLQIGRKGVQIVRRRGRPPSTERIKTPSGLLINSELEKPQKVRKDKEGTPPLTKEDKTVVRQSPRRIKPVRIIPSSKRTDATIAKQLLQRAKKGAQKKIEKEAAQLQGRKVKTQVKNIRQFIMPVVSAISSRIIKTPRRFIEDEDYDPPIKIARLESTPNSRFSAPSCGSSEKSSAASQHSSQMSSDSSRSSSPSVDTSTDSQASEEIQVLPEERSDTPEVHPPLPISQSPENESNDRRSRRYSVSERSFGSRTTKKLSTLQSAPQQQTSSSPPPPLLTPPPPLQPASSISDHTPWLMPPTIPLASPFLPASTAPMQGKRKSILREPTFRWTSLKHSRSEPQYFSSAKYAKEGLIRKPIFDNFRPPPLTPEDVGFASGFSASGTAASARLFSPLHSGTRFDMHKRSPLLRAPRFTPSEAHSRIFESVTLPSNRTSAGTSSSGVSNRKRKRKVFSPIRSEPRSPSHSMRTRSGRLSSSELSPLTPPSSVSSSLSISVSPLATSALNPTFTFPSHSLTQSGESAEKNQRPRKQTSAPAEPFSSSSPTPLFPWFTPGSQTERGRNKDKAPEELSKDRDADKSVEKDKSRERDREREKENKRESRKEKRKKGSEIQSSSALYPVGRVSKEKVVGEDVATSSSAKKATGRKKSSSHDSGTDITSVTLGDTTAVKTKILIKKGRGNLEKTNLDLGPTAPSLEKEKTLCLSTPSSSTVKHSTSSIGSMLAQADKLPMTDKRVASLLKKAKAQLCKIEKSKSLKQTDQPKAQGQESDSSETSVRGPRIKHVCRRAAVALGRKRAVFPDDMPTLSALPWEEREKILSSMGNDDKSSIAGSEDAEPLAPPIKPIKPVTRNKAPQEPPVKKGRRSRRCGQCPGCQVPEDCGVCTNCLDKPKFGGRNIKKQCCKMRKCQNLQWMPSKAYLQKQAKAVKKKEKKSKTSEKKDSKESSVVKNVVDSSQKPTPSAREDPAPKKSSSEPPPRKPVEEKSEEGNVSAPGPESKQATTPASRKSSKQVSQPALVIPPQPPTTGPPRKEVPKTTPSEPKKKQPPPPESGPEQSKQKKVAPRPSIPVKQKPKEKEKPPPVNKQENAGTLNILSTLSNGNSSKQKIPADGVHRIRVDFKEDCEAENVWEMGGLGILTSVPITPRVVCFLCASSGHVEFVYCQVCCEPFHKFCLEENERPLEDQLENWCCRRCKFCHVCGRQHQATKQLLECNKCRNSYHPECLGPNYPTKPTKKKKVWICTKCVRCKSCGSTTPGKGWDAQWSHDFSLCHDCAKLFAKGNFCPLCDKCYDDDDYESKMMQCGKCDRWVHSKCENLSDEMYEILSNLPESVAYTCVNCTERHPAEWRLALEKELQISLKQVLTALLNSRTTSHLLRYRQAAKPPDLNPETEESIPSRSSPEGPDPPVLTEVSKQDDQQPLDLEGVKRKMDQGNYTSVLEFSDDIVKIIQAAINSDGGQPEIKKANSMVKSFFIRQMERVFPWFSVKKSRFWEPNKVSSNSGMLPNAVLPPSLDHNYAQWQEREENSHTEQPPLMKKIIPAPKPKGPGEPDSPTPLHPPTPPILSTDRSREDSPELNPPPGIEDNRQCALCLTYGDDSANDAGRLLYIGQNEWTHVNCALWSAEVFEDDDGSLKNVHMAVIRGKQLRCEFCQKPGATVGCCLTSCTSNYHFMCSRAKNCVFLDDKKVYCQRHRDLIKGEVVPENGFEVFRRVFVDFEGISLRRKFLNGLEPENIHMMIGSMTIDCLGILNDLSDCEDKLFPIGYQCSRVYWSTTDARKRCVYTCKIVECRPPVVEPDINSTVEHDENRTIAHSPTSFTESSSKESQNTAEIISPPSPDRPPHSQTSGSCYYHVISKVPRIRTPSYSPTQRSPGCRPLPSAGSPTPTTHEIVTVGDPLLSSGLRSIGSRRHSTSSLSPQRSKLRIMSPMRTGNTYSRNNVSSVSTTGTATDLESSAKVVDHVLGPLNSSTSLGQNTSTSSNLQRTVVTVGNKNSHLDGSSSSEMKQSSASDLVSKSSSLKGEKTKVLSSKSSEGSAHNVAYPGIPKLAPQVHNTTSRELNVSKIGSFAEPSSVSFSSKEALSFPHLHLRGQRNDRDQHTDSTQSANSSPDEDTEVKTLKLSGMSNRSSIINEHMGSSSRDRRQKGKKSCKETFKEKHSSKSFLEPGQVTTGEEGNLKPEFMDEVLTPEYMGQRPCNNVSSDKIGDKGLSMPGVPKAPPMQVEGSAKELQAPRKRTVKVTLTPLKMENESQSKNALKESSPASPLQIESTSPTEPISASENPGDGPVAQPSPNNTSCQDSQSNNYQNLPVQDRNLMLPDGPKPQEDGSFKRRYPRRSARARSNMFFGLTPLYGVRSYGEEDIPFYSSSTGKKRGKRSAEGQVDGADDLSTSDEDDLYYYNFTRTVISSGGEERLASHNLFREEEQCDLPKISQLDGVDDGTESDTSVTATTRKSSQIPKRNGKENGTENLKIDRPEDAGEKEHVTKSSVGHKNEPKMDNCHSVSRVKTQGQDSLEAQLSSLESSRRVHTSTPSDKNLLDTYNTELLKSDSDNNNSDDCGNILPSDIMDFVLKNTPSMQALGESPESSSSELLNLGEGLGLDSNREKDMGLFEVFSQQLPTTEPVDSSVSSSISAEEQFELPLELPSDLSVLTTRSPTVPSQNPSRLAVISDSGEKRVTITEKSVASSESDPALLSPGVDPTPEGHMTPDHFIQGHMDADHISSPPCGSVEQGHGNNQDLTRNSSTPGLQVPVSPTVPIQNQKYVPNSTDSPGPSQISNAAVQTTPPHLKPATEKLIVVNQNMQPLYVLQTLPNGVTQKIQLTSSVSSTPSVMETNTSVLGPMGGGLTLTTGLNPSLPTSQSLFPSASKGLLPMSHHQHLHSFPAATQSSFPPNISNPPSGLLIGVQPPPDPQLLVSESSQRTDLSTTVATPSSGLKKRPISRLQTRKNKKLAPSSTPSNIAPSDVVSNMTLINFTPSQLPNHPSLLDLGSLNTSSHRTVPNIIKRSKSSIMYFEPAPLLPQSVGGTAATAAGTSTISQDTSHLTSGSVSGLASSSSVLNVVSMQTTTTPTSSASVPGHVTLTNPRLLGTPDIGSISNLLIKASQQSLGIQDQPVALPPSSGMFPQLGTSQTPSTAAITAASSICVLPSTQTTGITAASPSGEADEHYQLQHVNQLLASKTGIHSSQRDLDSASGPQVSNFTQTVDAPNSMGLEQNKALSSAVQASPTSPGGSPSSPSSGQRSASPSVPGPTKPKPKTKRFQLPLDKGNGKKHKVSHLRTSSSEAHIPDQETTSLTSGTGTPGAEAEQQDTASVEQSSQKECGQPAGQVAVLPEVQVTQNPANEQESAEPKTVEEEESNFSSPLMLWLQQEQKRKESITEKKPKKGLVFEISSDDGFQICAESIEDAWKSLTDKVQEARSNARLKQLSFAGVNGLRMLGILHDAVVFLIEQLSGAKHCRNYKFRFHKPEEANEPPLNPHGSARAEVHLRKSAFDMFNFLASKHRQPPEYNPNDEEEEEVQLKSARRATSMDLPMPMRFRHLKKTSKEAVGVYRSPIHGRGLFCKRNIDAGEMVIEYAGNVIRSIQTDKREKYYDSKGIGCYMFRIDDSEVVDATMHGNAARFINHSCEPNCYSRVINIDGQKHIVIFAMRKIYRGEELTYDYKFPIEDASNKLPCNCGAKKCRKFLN

target: Histone-lysine N-methyltransferase 2A (Homo sapiens) (UniProt Q03164); assay: qHTS Fluorescence Polarization Assay for Inhibitors of MLL CXXC domain - DNA interaction; conditions: MLL-CXXC / FITC-HOXA9 DNA fluorescence polarization; series mostly up to 115 µM
Method in brief: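 Fluorescence polarization: 7 uM MLL-CXXC (stock) preincubated 5 min with compounds, then 50 nM fluorescein-HOX-A9 DNA (stock) added; 30 min ambient. Buffer 50 mM Tris-HCl pH 7.5, 50 mM NaCl, 1 mM DTT, 0.05% BSA.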
Potency is read from the fitted curve at half-maximal effect.

SMILES	Potency
CCCCc1nc2cc(C(=O)NCCc3cnn(C)c3)ccc2o1	inactive
O=C(Cc1ccc(Cl)cc1)Nc1ccc(-c2nnc(-c3ccco3)o2)cc1	inactive
O=C(N/C(=C/c1ccc(Br)cc1)C(=O)N1CCOCC1)c1cccs1	inconclusive: 10 µM [inhibitor, single point]
N#CC1=C(N)C(C#N)(C#N)[C@H](c2ccoc2)[C@H]2CN(Cc3ccccc3)CC=C12	inconclusive: 31.6 µM [fluorescent, side channel, partial curve]
O=C(Cn1cncn1)N/N=C/c1ccccc1O	inactive
CCCCOP(=O)(OCCCC)C(Nc1ccc(C(=O)OCC)cc1)c1ccncc1 (stereo not drawn)	inactive
CC(=O)OCC(=O)c1ccc2ccn(C(C)=O)c2c1	inactive
Cc1ccc(C(=O)NC(=C(Cl)Cl)S(=O)(=O)c2ccc(Cl)cc2)cc1	inconclusive: 8.91 µM [quencher, side channel, single point]
Cc1ccc(-c2nnc(Nc3ccc4c(c3)nc(C)n4C)c3ccccc23)cc1	inconclusive: 35.5 µM [quencher, side channel, partial curve]
CC1CCN(c2ccc([N+](=O)[O-])cc2C(=O)NCC2CCCO2)CC1 (stereo not drawn)	inconclusive: 14.1 µM [fluorescent, side channel, single point]
C=CCN1C(=O)/C(=C\C=C2\N(C)c3ccccc3C2(C)C)SC1=S	inconclusive: 4.47 µM [fluorescent, side channel, full curve]
N#Cc1c(C#N)c(O)c2ccccc2c1O	inconclusive: 89.1 µM [inhibitor, single point]
CCCN1CCC(=O)N([C@H](CSc2ccc(Br)cc2)Cc2ccccc2)CC1	inactive
Cc1cc(NC(c2cccnc2)c2ccc3cccnc3c2O)no1 (stereo not drawn)	inconclusive: 35.5 µM [inhibitor, partial curve]
CCOc1ccc2nc(N3CCCN(C(=O)Nc4ccccc4C)CC3)c(C#N)cc2c1	inconclusive: 89.1 µM [fluorescent, single point]
CCN(c1ccccc1C(=O)O)S(=O)(=O)c1cccc2nsnc12	inconclusive: 14.1 µM [inhibitor, single point]
Cc1ccc2occ(/C=N/NC(=O)c3ccccc3C)c(=O)c2c1	inconclusive: 11.2 µM [fluorescent, side channel, partial curve]
Oc1ccc(Cl)cc1C=Nc1ccccc1Br	inactive
Cc1nc(NNC(=O)c2ccc(Cl)cc2Cl)cc(-c2ccccc2)n1	inconclusive: 70.8 µM [fluorescent, side channel, single point]
Cn1c(=O)c2c(nc(SCC(=O)Nc3ccccc3)n2C)n(C)c1=O	inactive
O=C(CSc1ccc2nnc(-c3cccnc3)n2n1)Nc1ccc(F)cc1F	inactive
O=C1CCCC/C1=C/Nc1ccc(S(=O)(=O)Nc2ncccn2)cc1	inactive

Exported with bars between the fields: part of the list above.
SMILES | Potency
CC(=O)OCC(=O)c1ccc2ccn(C(C)=O)c2c1 | inactive
N#Cc1c(C#N)c(O)c2ccccc2c1O | inconclusive: 89.1 µM [inhibitor, single point]
O=C(CSc1ccc2nnc(-c3cccnc3)n2n1)Nc1ccc(F)cc1F | inactive

(continued)

SMILES	Potency
CN=C1C=CC(=C(c2ccc(N(C)C)cc2)c2ccc(N(C)C)cc2)C=C1	inactive
COc1ccc(C(=O)Nc2nc(C)cs2)cc1S(=O)(=O)N1CCCC1	inconclusive: 31.6 µM [fluorescent, side channel, single point]
COCCN(C(=O)/C=C/c1ccccc1)c1c(N)n(Cc2ccccc2)c(=O)[nH]c1=O	inactive
CCN1/C(=C/c2ccc3ccc(C)cc3[n+]2CC)Sc2ccccc21	inconclusive: 35.5 µM [fluorescent, partial curve]
COc1cc(Cl)cc(/C=C/c2ccc3cccc(O)c3n2)c1OC	inconclusive: 31.6 µM [fluorescent, partial curve]
Cc1nc2c(C#N)cnn2c2c1CCNN2C	inconclusive: 7.08 µM [fluorescent, side channel, full curve]
O=C(CCCn1c(=O)[nH]c2cc(Cl)ccc2c1=O)NCCCN1CCCC1=O	inconclusive: 14.1 µM [inhibitor, single point]
Cc1oc2cc(O)ccc2c(=O)c1-c1nncn1-c1ccccc1	inconclusive: 39.8 µM [fluorescent, side channel, single point]
CC(C)OC(=O)CC(=O)CSc1nc2c(cc1C#N)CCCC2	inconclusive: 89.1 µM [inhibitor, single point]
Cn1c(SCC(=O)Nc2ccc3c(c2)oc2ccccc23)nnc1-c1ccccc1	inactive
O=C(CNc1cccc2ccccc12)N/N=C/c1ccc([N+](=O)[O-])o1	inconclusive: 89.1 µM [quencher, side channel, single point]
Cc1n[nH]c(C)c1N1C(=O)c2cccc3c(N4CCCCCC4)ccc(c23)C1=O	inconclusive: 4.47 µM [fluorescent, side channel, full curve]
CN(CC1CCCN(CCc2ccc(Cl)cc2)C1)C(=O)C(=O)c1ccco1 (stereo not drawn)	inconclusive: 63.1 µM [quencher, side channel, single point]
Cc1ccc(-c2[nH]c(=O)n3ccncc23)s1	inconclusive: 35.5 µM [inhibitor, partial curve]
CCOc1ccc(C(NC(=O)/C=C/c2ccco2)c2ccc(OC)c(OC)c2)cc1 (stereo not drawn)	inconclusive: 14.1 µM [inhibitor, single point]
Cc1ccc(C(C)C)c(OCCCN(C)Cc2ccccc2)c1	inconclusive: 44.7 µM [fluorescent, side channel, single point]
O=C(COc1ccc(Br)cc1)NCCCNC(=O)c1ccncc1	inconclusive: 5.62 µM [quencher, side channel, partial curve]
Cc1coc2c(C)c3oc(=O)c(CCC(=O)NCCCN4CCOCC4)c(C)c3cc12	inactive
COC(=O)CN1C(=O)S/C(=C/c2ccc(N3CCCCC3)o2)C1=O	inconclusive: 31.6 µM [fluorescent, side channel, partial curve]
Cc1cc(C)n2nc3nc(N4CCCCC4)nc(-c4ccco4)c3c2n1	inactive
COc1ccccc1NC(=O)c1sc2nc(Cc3ccccc3)cc(C(F)(F)F)c2c1N	inconclusive: 35.5 µM [fluorescent, side channel, single point]
